PubChem BioAssay AID504834 (National Center for Advancing Translational Sciences (NCATS), 2011)
Screen size: about 320,000 compounds; about 22,000 (6.9%) were called active. Inconclusive results, whose numbers are uncertain, are shown with a selection of clear calls. Calls come from the whole dose curve; as a rule, active = well fitted inhibition curve with a large enough effect; inconclusive = small, poorly fitted or top-dose-only effect, or another doubt; inactive = no such curve, though single readings can be large or run the other way. Potencies beside an inconclusive call are fits to weak or partial responses and may not hold up.

Assay: Primary qHTS for delayed death inhibitors of the malarial parasite plastid, 96 hour incubation
Settings: P. falciparum luciferase reporter growth; series mostly up to 28.7 µM; activity change, negative = inhibition: at the top concentration
Summary of the method: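 Infected RBCs, 2% Hct / 0.05% parasitemia final; luciferase-reporter P. falciparum; cpd 96 h, 37 C, 5% CO2; luciferase detection reagent; luminescence.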
% is set by controls: 0 for no effect and ±100 for the full control effect; potency is the fitted concentration of half-maximal effect.

SMILES	Potency	activity change, negative = inhibition
CCOc1ccc(C(=O)Nc2ccccc2N2CCCC2)cc1	inconclusive: 16.5 µM [inhibitor, single point]	–
COc1cccc(N2CCN(Cc3ccco3)CC2)c1	–	inactive: -26.6%
CCOc1ncccc1C(=O)N1CCN(S(=O)(=O)c2ccc3ccccc3c2)CC1	inconclusive: 9.28 µM [inhibitor, partial curve, poor fit]	–
CCOC(=O)c1ccoc1CSCC(=O)N1CCN(S(=O)(=O)c2ccc(C)cc2)CC1	inconclusive: 14.7 µM [inhibitor, partial curve, poor fit]	–
COC(=O)c1ccc(CNC(=O)C(C)N=C2NS(=O)(=O)c3ccccc32)cc1 (stereo not given)	–	inactive: 1.19%
CCC1(C)NC(=O)N(CC(=O)N2N=C(c3ccccc3)CC2c2ccc(OC)cc2)C1=O (stereo not given)	inconclusive: 16.5 µM [inhibitor, partial curve, poor fit]	–
COc1cccc2cc(C(=O)CS(=O)(=O)c3ccc(C(C)(C)C)cc3)c(=O)oc12	inconclusive: 18.5 µM [inhibitor, single point]	–
COC(=O)CSc1nnc(SCc2ccccc2)s1	inconclusive: 10.4 µM [inhibitor, single point]	–
Cc1ccc(N2CCCn3c2nc2c3c(=O)n(CCN3CCOCC3)c(=O)n2C)cc1	inconclusive: 11.7 µM [inhibitor, single point]	–
Cc1ccc(NC2CCCN(C(=O)C3CCCC3)C2)cc1C (stereo not given)	active: 13.1 µM	–
CCOC(=O)CC(NC(=O)Cc1ccccc1)c1ccccc1Cl (stereo not given)	inconclusive: 13.1 µM [inhibitor, partial curve, poor fit]	–
CC(C)CCC(C(=O)O)C(C)CC(=O)NC1CCCCC1 (stereo not given)	–	inactive: -1.45%
O=C(CSC1CC(=O)N(c2ccc(C(=O)O)cc2)C1=O)Nc1ccc2ccccc2c1 (stereo not given)	inconclusive: 11.7 µM [inhibitor, single point]	–
Cc1cc(NC(=O)NC(C(F)(F)F)C(F)(F)F)no1	–	inactive: 2.36%
NS(=O)(=O)c1ccc(CCNC(=O)CNS(=O)(=O)c2cccc(Br)c2)cc1	inconclusive: 4.15 µM [inhibitor, partial curve, poor fit]	–
COc1cccc(/C=N/Nc2c(Cl)cncc2Cl)c1O	–	inactive: -1.03%
COc1ccccc1/C=C/C=N/N1CCN(Cc2ccccc2)CC1	–	inactive: 4.63%
O=C1c2ccccc2C(O)(Cc2ccccc2)N1CCCN1CCOCC1 (stereo not given)	inconclusive: 0.0029 µM [inhibitor, full curve, poor fit]	–
CCC(C)N(CCNC(=O)CC1Oc2ccccc2NC1=O)C1CCCCC1 (stereo not given)	inconclusive: 13.1 µM [inhibitor, single point]	–
Cc1ccn2c(C(=O)CSc3ccc(Cl)cc3)c(C)nc2c1	inconclusive: 18.5 µM [inhibitor, single point]	–
c1ccc(-c2ccccn2)nc1	–	inactive: -10.7%
CSCc1cc(N2CCOCC2)nc(SCc2ccc(Cl)cc2Cl)n1	inconclusive: 2.33 µM [inhibitor, partial curve, poor fit]	–
CN1CCN(CCC(=O)N2c3ccccc3Sc3ccc(Cl)cc32)CC1	–	inactive: 34.8%

4 of the compounds above, with bars between the fields:
SMILES | Potency | activity change, negative = inhibition
CCOC(=O)CC(NC(=O)Cc1ccccc1)c1ccccc1Cl (stereo not given) | inconclusive: 13.1 µM [inhibitor, partial curve, poor fit] | –
CC(C)CCC(C(=O)O)C(C)CC(=O)NC1CCCCC1 (stereo not given) | – | inactive: -1.45%
O=C(CSC1CC(=O)N(c2ccc(C(=O)O)cc2)C1=O)Nc1ccc2ccccc2c1 (stereo not given) | inconclusive: 11.7 µM [inhibitor, single point] | –
Cc1cc(NC(=O)NC(C(F)(F)F)C(F)(F)F)no1 | – | inactive: 2.36%

Further entries follow.

SMILES	Potency	activity change, negative = inhibition
CCOC(=O)c1[nH]cnc1N=Nc1c(O)ccc2ccccc12	active: 2.33 µM	–
CC/C(=N\NC(=O)c1ccccc1Cl)c1ccc(Br)s1	inconclusive: 5.22 µM [inhibitor, partial curve]	–
CCc1ccc(OCC(=O)NNC(=O)c2cnccn2)c(Br)c1	inconclusive: 0.0023 µM [inhibitor, full curve, poor fit]	–
O=C(c1ccc(F)cc1)N1CCCC(c2nc(-c3ccncc3)no2)C1 (stereo not given)	–	inactive: 21.3%
CC(C)OCCCNc1nc2c(-c3ccccc3)nnn2c2ccccc12	inconclusive: 18.5 µM [inhibitor, single point]	–
CCOC(=O)COc1ccc(-c2nnc(-c3ccccc3)o2)cc1	inconclusive: 4.15 µM [inhibitor, single point]	–
CCSc1ncc(Cl)c(C(=O)Nc2ccccc2)n1	active: 8.28 µM	–
COc1ccc(C(=O)NCCc2nnc3ccc(SCC(=O)N4CCCCC4)nn23)cc1	inconclusive: 20.8 µM [inhibitor, partial curve, poor fit]	–
O=C(Nc1ccc2c(c1)OCCO2)c1ccco1	inconclusive: 10.4 µM [inhibitor, single point]	–
CCOc1cc(C#N)c(NC(=O)Cn2nnc3ccccc32)cc1OCC	active: 5.86 µM	–
CC(C)C[C@@H](CO)N1CCN(CCCc2ccccc2)CCC1=O	inconclusive: 4.15 µM [inhibitor, partial curve, poor fit]	–
CCC(NC(=O)CCc1c(C)c2cc3c(C)c(C)oc3cc2oc1=O)C(=O)N[C@@H](Cc1ccccc1)C(=O)O (stereo not given in full)	inconclusive: 18.5 µM [inhibitor, single point]	–
CNS(=O)(=O)c1c(C)cc(C)c(N(C)S(=O)(=O)c2ccccc2)c1C	inconclusive: 11.7 µM [inhibitor, single point]	–
Cc1c(C(=O)N2CCN(C3CCS(=O)(=O)C3)CC2)oc2ccc(Cl)cc12 (stereo not given)	–	inactive: 3.08%
Cc1[nH]c2ccccc2c1C(=O)C(=O)Nc1ccc2c(c1)OCCO2	–	inactive: -22.9%
C=CCNc1nc(N2CCCCC2)c(C#N)c2c1CN(Cc1ccccc1)CC2	inconclusive: 11.7 µM [inhibitor, partial curve, poor fit]	–
CC1(C)S[C@@H]2[C@H](NC(=O)[C@@H](N)c3ccccc3)C(=O)N2[C@H]1C(=O)O[C@H]1OC(=O)c2ccccc21	inconclusive: 1.14 µM [inhibitor, partial curve, poor fit]	–
c1ccc(CCOn2ccnc2)cc1	–	inactive: 0.12%
CCN(CC(=O)NCC1CCCO1)S(=O)(=O)c1ccc2ccccc2c1 (stereo not given)	–	inactive: -17.8%
COc1cccc(N(C(=O)CNC(=O)c2ccco2)C(C(=O)NC2CCCCC2)c2ccncc2)c1 (stereo not given)	active: 9.28 µM	–
CC(=O)Oc1ccc(C(=O)Nc2ccccc2C(=O)N2CCCCC2)cc1	inconclusive: 18.5 µM [inhibitor, single point]	–
CCc1ccccc1NS(=O)(=O)c1ccc(OC)c2ncccc12	inconclusive: 10.4 µM [inhibitor, partial curve, poor fit]	–
